No constants are given. Whether binding was seen depends on the method and setting. For some assays here: Binding can be weak; no strength is given.
How the values were obtained:
Experiment in all cases: two-hybrid; binding domain (pDEST32) and activation domain (pDEST22) fusions combined in both directions by mating PJ69-4A and PJ69-4α; selection on SD -Leu -Trp -Ade and SD -Leu -Trp -His + 1, 5 or 10 mM 3-AT; +22°C for 5 days; positive if either direction grew
GDEF2 (Gerbera hybrida) = target: T1, GDEF2 (Gerbera hybrida) (UniProt Q9ZS27)
T1 sequence: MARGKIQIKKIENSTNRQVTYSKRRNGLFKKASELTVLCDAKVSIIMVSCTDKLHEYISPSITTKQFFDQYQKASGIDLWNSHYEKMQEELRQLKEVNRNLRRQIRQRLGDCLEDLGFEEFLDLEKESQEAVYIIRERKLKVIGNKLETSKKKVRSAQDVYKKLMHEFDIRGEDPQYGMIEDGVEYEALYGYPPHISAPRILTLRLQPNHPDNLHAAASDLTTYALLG

GSQUA3 (Gerbera hybrida) = target: T2, GSQUA3 (Gerbera hybrida) (UniProt D2T2G1)
T2 sequence: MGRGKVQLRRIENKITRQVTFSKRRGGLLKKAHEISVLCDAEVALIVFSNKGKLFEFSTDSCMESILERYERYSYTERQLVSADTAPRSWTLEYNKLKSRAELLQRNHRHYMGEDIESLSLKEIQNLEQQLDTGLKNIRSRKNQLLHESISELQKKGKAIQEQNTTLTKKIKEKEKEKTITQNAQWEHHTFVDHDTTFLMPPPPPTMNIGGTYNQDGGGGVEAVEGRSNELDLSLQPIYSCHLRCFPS

GDEF1 (Gerbera hybrida) = target: T3, GDEF1 (Gerbera hybrida) (UniProt Q9ZS28)
T3 sequence: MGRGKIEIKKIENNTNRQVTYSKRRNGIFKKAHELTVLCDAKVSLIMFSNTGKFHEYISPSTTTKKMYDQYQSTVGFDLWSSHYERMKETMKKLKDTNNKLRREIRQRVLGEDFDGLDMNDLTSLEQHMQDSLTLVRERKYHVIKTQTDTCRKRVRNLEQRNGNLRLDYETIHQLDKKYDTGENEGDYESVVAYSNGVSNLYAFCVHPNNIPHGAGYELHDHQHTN

GSQUA2 (Gerbera hybrida) = target: T4, GSQUA2 (Gerbera hybrida) (UniProt D2T2G0)
T4 sequence: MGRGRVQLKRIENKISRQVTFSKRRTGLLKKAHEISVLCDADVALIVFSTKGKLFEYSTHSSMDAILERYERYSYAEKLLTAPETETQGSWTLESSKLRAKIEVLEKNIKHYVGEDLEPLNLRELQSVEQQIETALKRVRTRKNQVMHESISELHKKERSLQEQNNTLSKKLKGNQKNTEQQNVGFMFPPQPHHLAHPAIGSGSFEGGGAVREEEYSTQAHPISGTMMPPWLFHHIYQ

binding (GDEF2 (Gerbera hybrida))	binding (GSQUA3 (Gerbera hybrida))	binding (GDEF1 (Gerbera hybrida))	binding (GSQUA2 (Gerbera hybrida))	Substance
no binding	binds	no binding	binds	GRCD4, truncated (C terminal deletion) (Gerbera hybrida) (domain or fragment)
no binding	binds	no binding	binds	GRCD5, truncated (C terminal deletion) (Gerbera hybrida) (domain or fragment)
